This is an account of results in the supplement of paper PMC12819154, “High-throughput peptide-centric local stability assay extends protein–ligand identification to membrane proteins, tissues and bacteria” (Nature Structural & Molecular Biology, 2025).

By UniProt entry, the sequences of proteins in these tests, tags left out. Where a name states a change or a piece, a line headed by the entry shows the natural chain unless it says otherwise.
UniProt Q9WUK4, whole entry: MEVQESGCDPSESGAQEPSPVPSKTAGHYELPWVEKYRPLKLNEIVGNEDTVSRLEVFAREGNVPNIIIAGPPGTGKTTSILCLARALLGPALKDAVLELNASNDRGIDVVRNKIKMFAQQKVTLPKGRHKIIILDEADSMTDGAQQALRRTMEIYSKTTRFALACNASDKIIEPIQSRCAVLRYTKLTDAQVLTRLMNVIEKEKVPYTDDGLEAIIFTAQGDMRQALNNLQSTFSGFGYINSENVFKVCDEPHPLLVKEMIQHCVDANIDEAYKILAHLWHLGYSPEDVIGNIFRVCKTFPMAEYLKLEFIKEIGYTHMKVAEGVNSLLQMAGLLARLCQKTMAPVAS
UniProt Q9QYK5: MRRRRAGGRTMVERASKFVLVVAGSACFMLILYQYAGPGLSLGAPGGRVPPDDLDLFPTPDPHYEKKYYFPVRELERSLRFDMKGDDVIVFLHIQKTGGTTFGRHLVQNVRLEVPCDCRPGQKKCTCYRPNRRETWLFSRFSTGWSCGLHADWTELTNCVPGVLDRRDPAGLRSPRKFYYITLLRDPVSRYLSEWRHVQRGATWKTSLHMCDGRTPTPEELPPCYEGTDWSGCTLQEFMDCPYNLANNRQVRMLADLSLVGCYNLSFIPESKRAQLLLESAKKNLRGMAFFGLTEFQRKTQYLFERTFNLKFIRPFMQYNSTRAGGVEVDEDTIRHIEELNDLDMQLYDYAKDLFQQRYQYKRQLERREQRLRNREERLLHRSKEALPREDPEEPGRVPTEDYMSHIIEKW
UniProt Q9R022: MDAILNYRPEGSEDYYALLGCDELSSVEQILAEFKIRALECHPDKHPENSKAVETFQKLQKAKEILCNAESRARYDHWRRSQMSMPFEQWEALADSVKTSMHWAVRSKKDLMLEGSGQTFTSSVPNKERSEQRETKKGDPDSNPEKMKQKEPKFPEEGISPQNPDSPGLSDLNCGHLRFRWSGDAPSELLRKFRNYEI
UniProt Q9WTY1: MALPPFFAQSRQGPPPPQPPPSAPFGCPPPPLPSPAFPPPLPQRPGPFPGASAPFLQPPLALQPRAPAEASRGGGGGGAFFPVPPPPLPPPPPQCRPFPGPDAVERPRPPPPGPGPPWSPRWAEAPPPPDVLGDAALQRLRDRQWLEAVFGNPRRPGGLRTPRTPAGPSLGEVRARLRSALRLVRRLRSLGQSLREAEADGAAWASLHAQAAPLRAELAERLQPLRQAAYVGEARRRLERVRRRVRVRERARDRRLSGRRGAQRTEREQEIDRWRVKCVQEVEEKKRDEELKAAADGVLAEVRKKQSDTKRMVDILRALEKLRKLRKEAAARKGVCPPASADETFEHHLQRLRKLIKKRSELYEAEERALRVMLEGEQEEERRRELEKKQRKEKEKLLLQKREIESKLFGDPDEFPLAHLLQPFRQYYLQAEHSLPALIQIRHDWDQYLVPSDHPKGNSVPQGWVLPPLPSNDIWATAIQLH
UniProt Q9R0P5: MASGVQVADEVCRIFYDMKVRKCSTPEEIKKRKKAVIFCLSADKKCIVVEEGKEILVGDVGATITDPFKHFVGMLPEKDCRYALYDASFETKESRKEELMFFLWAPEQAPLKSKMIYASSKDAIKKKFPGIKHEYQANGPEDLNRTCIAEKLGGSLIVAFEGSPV
UniProt Q9WTP2: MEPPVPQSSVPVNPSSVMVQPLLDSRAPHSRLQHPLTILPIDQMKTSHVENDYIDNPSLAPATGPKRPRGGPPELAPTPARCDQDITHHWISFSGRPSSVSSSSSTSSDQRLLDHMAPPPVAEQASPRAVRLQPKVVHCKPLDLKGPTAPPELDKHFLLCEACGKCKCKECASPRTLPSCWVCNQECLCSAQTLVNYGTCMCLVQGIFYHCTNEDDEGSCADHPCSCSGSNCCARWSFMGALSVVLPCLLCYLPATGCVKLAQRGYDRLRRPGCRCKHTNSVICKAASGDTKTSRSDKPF
UniProt Q9QXP7: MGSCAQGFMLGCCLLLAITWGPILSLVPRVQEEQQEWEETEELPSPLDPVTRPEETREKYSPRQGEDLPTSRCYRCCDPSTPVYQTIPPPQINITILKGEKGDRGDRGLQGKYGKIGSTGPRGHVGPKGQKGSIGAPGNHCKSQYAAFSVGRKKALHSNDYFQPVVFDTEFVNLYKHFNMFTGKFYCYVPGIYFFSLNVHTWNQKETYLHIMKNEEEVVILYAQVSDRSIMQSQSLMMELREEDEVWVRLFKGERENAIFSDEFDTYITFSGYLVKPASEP
UniProt Q9QZQ1: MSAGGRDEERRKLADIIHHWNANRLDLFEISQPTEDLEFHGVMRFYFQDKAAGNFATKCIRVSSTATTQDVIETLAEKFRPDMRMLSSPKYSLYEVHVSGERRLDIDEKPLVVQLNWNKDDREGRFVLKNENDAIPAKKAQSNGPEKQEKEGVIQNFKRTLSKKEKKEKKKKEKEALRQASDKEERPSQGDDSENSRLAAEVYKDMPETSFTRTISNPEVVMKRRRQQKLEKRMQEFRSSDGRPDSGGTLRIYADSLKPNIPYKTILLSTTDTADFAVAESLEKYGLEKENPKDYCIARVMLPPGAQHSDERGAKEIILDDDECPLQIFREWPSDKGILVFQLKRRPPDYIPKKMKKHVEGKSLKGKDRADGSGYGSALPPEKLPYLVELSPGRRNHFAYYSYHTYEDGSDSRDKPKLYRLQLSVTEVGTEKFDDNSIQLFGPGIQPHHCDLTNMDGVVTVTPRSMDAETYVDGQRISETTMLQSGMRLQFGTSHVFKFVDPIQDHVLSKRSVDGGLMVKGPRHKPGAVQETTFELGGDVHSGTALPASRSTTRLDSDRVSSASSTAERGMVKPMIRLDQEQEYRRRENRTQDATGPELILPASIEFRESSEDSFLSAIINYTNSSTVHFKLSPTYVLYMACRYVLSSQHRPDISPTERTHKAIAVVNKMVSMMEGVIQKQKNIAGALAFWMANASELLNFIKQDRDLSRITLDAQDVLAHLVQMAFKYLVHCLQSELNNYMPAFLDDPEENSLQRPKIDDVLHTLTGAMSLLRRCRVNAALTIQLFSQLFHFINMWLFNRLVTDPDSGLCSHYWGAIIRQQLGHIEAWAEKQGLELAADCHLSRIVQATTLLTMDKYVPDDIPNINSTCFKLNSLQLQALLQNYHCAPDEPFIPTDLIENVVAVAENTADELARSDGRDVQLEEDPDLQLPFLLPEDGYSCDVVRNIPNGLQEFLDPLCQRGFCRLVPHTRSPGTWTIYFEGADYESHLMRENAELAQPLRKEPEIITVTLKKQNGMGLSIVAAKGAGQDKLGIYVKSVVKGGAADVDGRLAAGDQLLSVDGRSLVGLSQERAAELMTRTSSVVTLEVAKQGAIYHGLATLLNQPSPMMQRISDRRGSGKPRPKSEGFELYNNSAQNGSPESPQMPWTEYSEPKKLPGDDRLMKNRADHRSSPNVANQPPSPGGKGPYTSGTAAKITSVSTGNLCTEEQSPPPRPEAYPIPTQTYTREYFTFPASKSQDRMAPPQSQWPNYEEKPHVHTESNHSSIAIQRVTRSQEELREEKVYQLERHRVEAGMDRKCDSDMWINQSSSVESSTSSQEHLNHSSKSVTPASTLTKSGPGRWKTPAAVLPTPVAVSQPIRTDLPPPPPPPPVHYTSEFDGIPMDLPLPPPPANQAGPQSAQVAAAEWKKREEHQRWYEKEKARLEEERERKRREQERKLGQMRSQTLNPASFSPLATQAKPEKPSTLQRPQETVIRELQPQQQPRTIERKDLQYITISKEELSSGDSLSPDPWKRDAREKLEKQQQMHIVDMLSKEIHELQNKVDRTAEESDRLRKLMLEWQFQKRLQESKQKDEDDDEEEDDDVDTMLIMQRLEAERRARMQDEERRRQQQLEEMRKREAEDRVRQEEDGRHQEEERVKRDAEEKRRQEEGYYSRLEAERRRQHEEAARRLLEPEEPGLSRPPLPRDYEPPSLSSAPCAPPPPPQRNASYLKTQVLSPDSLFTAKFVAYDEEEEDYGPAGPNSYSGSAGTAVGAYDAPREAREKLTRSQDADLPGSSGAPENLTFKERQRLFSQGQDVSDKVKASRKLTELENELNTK
UniProt Q9WUH7: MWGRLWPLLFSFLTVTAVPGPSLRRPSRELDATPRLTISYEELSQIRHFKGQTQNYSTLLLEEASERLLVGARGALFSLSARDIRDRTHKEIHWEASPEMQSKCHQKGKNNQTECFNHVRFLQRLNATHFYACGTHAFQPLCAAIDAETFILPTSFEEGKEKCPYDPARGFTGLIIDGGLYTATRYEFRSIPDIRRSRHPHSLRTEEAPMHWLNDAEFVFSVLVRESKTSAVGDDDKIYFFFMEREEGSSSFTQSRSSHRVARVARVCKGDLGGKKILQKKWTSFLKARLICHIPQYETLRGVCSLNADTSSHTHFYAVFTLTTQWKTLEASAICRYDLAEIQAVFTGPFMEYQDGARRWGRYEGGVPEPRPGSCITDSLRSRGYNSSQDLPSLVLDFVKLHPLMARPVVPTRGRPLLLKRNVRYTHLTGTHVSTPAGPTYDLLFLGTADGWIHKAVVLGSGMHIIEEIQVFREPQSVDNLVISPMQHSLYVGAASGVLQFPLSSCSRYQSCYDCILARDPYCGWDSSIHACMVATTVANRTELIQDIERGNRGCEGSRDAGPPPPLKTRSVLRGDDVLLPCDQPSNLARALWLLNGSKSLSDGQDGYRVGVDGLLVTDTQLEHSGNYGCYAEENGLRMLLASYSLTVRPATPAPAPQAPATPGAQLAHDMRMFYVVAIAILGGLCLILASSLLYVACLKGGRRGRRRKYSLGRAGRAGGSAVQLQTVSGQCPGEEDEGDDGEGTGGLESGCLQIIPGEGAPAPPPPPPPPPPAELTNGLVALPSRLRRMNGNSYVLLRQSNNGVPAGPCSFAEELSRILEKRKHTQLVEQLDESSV
UniProt Q9QXW0: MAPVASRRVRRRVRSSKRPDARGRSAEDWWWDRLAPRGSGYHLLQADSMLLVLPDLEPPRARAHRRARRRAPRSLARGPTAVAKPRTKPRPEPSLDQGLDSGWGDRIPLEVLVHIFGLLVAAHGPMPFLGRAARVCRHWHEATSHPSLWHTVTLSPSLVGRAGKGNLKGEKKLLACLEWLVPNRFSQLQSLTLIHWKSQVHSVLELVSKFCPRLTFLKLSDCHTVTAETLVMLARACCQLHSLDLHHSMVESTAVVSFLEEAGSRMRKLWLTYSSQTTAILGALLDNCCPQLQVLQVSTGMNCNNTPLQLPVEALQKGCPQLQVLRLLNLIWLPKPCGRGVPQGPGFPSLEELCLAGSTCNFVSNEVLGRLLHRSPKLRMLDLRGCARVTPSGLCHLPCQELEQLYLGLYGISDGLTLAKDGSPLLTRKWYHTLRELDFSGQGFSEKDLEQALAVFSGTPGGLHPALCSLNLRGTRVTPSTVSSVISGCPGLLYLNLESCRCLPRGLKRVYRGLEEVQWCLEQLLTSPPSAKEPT
UniProt Q9WV34: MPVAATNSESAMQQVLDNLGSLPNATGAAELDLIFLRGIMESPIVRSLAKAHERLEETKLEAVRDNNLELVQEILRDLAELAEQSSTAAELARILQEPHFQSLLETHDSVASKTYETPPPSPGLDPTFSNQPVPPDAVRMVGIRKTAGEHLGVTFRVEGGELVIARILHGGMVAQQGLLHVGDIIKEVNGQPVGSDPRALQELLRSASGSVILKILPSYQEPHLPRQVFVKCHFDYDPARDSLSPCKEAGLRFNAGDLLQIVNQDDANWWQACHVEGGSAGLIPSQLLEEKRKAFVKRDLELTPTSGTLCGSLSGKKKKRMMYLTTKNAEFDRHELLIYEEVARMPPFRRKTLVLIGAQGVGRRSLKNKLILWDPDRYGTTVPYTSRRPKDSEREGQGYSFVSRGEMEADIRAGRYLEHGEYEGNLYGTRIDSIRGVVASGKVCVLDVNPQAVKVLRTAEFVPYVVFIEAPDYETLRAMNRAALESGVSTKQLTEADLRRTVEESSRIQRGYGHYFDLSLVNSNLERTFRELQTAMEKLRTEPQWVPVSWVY
UniProt Q9QXW2: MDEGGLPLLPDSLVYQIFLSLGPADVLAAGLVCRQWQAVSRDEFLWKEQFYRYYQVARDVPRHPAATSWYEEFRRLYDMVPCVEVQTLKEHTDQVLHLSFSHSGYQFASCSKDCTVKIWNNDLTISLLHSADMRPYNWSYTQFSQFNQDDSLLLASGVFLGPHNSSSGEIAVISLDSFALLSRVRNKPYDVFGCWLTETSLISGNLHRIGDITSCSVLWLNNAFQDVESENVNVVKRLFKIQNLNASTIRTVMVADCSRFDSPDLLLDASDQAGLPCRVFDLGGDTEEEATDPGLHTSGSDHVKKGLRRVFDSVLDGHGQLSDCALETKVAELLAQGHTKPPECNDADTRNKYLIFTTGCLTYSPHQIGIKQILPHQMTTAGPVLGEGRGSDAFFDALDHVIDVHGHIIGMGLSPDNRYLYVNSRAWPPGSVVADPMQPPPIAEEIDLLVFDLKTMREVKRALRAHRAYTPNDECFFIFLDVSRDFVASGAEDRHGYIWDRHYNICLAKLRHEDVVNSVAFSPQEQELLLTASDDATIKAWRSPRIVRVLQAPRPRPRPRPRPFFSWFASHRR

The list shows a part of the results. Small differences around the control level are noise.

Compound in the assay: CN[C@@H]1C[C@H]2O[C@@](C)([C@@H]1OC)n1c3ccccc3c3c4c(c5c6ccccc6n2c5c31)C(=O)NC4 [staurosporine]
The assay is described as follows: log2 fold change of tryptic peptide abundance, ligand vs vehicle (limited proteolysis) (log2 ratio); higher = more trypsin-susceptible (destabilized). As to conditions: ligand concentration: 20 uM; sample: mouse liver crude lysate; replicate design: treated separately.
“UniProt Q9WV06 (peptide sequence: LAQEEETEK, peptide start residue: 18)”: the log2 fold change is -0.505.
Next, “UniProt Q9R092 (peptide sequence: KVWEAAPEHIK, peptide start residue: 225)”: -0.652; “UniProt Q9QZH6 (peptide sequence: KMPEFGVER, peptide start residue: 116)”: 0.338.
Next, “UniProt Q9R1S7 (peptide sequence: TTIYLSYLR, peptide start residue: 927)”: 0.543.
With “UniProt Q9R1R2 (peptide sequence: LGSAPEVLLVR, peptide start residue: 261)” the figure was -0.128; with “UniProt Q9QXD8 (peptide sequence: VDKGAGNNPEFEETR, peptide start residue: 31)”, 0.267; with “UniProt Q9WUK4 (peptide sequence: TTSILCLAR, peptide start residue: 78)”, 0.137.
In the case of “UniProt Q9QYK5 (peptide sequence: HLVQNVR, peptide start residue: 105)”, the log2 fold change is -0.058.
Next, “UniProt Q9R022 (peptide sequence: TSMHWAVR, peptide start residue: 99)”: 0.324; “UniProt Q9WTY1 (peptide sequence: AAADGVLAEVR, peptide start residue: 293)”: 0.116.
In the case of “UniProt Q9QZ23 (peptide sequence: FIPGKPVLETR, peptide start residue: 72)”, the log2 fold change amounted to 0.184.
Next, “UniProt Q9WUP7 (peptide sequence: GLALSNSDVIR, peptide start residue: 127)”: -0.241.
Next, “UniProt Q9R0P5 (peptide sequence: VRKCSTPEEIK, peptide start residue: 20)”: -0.221; “UniProt Q9WTQ5 (peptide sequence: ESVEKLPLQCK, peptide start residue: 1605)”: 0.944.
Next, “UniProt Q9WV32 (peptide sequence: NSVSQISVLSGGK, peptide start residue: 327)”: -0.239.
“UniProt Q9R0I7 (peptide sequence: SGGLLADPPKGSFLEGPR, peptide start residue: 689)”: the log2 fold change is -0.266.
As to “UniProt Q9R1Q7 (peptide sequence: HTAAPTDPTDGP, peptide start residue: 141)”, the log2 fold change was -0.0126.
With “UniProt Q9R1J0 (peptide sequence: AVLDANDPKK, peptide start residue: 171)”, the log2 fold change was -0.367.
Next, “UniProt Q9R0P6 (peptide sequence: EIPIVHR, peptide start residue: 91)”: 0.149.
Turning to “UniProt Q9QY06 (peptide sequence: VGQITVSEK, peptide start residue: 1447)”, the log2 fold change is -0.28.
Take “UniProt Q9R1V7 (peptide sequence: RFDPTQQGPI, peptide start residue: 820)”: the log2 fold change stood at 0.0674.
Next, “UniProt Q9WTP2 (peptide sequence: VVHCKPLDLK, peptide start residue: 136)”: -0.0511; “UniProt Q9QZ15 (peptide sequence: FKNESNSLHTYSESPAAPR, peptide start residue: 12)”: -0.142; “UniProt Q9QXP7 (peptide sequence: QGEDLPTSR, peptide start residue: 64)”: -0.051.
As for “UniProt Q9WTJ8 (peptide sequence: FSAHYDAVEAELK, peptide start residue: 49)”, the log2 fold change is -0.215.
Turning to “UniProt Q9QZQ1 (peptide sequence: LTELENELNTK, peptide start residue: 1810)”, the log2 fold change was -0.406.
“UniProt Q9WUH7 (peptide sequence: MNGNSYVLLR, peptide start residue: 790)”: the log2 fold change is -0.0591.
With “UniProt Q9WUZ9 (peptide sequence: GGVLKVEDFER, peptide start residue: 346)” the figure was 0.49.
With “UniProt Q9QXW0 (peptide sequence: SAEDWWWDR, peptide start residue: 25)” the figure was 0.213.
With “UniProt Q9R1Q8 (peptide sequence: ANRGPSYGLSR, peptide start residue: 2)” the figure was 0.0365; with “UniProt Q9WTM5 (peptide sequence: VYSLFLDESR, peptide start residue: 429)”, -0.311; with “UniProt Q9WV34 (peptide sequence: TLVLIGAQGVGR, peptide start residue: 353)”, -0.265.
As for “UniProt Q9QXW2 (peptide sequence: VFDLGGDTEEEATDPGLHTSGSDHVK, peptide start residue: 279)”, the log2 fold change worked out at 0.188.
With “UniProt Q9WU60 (peptide sequence: KQQPPAQPGTCI, peptide start residue: 1417)” the figure was -0.0915; with “UniProt Q9QY73 (peptide sequence: VNLAHSEI, peptide start residue: 316)”, 0.123.
Next, “UniProt Q9R1T2 (peptide sequence: KVLFCPVK, peptide start residue: 214)”: 0.217.
For the target “UniProt Q9QZU9 (peptide sequence: IYHPNVR, peptide start residue: 74)”, the log2 fold change is -0.254.
With “UniProt Q9R0P3 (peptide sequence: KAFSGYLGPDESK, peptide start residue: 186)” the figure was -0.247; with “UniProt Q9QXK2 (peptide sequence: HQEFVHMYNAQCDALHPK, peptide start residue: 278)”, -0.306; with “UniProt Q9R061 (peptide sequence: AEPGNLAGVR, peptide start residue: 9)”, -0.0897.
